From ChEMBL document CHEMBL3988442, “University of Dundee, Small-Polar-MMV Screening Library” (2021).

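Whole-parasite assay of Trypanosoma brucei over 72 hours; the read-out is not stated. Compounds at 30 µM. Direction is inferred from retests: higher values go with stronger inhibition. Values scatter widely below zero; nearly all retest evidence comes from the higher of the two concentrations used. Of about 64,000 compounds tested this way, about 940 (1.5%) reached 50% or more in at least one test.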

Results are given as percent effect.
The record does not define 0% and 100%; most values in the screen are far below 50% and negative numbers occur (in some assays of this library far below -100).
This is an unselected part of the compounds tested.

For O=C(O)c1ccc(F)c(S(=O)(=O)Nc2ccc(-n3cccn3)c(Cl)c2)c1 the result was 10.8%.
For COCCNC(=O)NCCn1nc(C(F)(F)F)n(C)c1=O the result was 2.373%.
For COCC1(CNc2cc(C(C)C)nc(N)n2)CC1 the result was -22.63%.
For CC(C)c1cc(C(=O)N2CCOCC2CC(=O)c2ccco2)nn1C (stereo unspecified) the result was -2.012%.
For COC(=O)CNC(=O)C1(N(C)Cc2ccccc2)Cc2ccccc2C1 the result was -74.59%.
For CCCC(=O)N(C)c1cc(C#N)c2ccccc2n1 the result was -12.79%.
For NC(=O)C1CCN(C(=O)c2ccn(-c3ccc(F)cc3)n2)CC1 the result was -24.9%.
For O=C(COC1CCCC1)N1CCCN(c2ncccn2)CC1 the result was -13.06%.
For COc1ccc(C(=O)N(C)Cc2c(C)noc2C)cn1 the result was 18.12%.
For CN(Cc1ccc(Br)c2cccnc12)S(C)(=O)=O the result was -14.38%.
For COc1ccc(CC(=O)Nc2cccnc2N2CCCC2)cc1OC the result was -16.91%.
For [H][C@@]12C[C@H](C(=O)NCc3ccccc3)[C@@]([H])(CN(C(=O)NC(C)C)C1)O2 the result was 7.63%.
For COc1ncc(C2(O)CCN(Cc3ccccc3O)CC2)c(OC)n1 the result was 13.71%.
For O=C(O)C(F)(F)F.O=C(O)C(F)(F)F.[H][C@@]12CN(Cc3ccccn3)C[C@]1([H])C(=O)N(c1ccsc1)C2 the result was -20.98%.
For c1ccc(CO[C@H]2CN(c3ncccn3)C[C@@]23CCCO3)cc1 the result was 0.735%.
For Cl.O=C(N1CCCC1)C1(Cc2ccc(-c3cccs3)cc2)CCNC1 (stereo unspecified) the result was 100.9%.
For O=C1CCCN1CC1CCCCN1C(=O)Nc1cccc(F)c1 (stereo unspecified) the result was 9.063%.
For COc1ccc(C(=O)NCCCOC(C)c2ccccc2)c(OC)c1 (stereo unspecified) the result was 17.87%.
For CCC(CC)C(CNC(=O)Nc1cnn(CCOC)c1)N(C)C (stereo unspecified) the result was 100.4%.
For COc1coc(CN2CCCC3(CCC(=O)N(CC4CC4)C3)C2)cc1=O (stereo unspecified) the result was -44.96%.
For COc1cccc(COCC(=O)N2CCCC(c3cc(C)[nH]n3)C2)c1 (stereo unspecified) the result was -16.91%.
For O=c1[nH]c(-c2ccccn2)nc2c1CCN(Cc1cccc(O)c1)C2 the result was -1.061%.
For [H][C@]12C[C@@H](Cn3cncn3)N(c3nccs3)[C@@]1([H])CCN(C)C2 the result was -21.72%.
For COc1ccc(N2CCC(NC(=O)c3sccc3C)CC2)cc1 the result was -32.75%.
For Cn1cc(CN(C(=O)c2ccc(O)c(Cl)c2)C2CC2)cn1 the result was -46.4%.
For O=C(c1nc(=O)[nH]c2ccccc12)N1CCCC(CC2CC2)(C(=O)O)C1 (stereo unspecified) the result was -11.56%.
For CC(O)CN(C)C(=O)Nc1ccn(-c2cccc(C(F)(F)F)c2)n1 (stereo unspecified) the result was -33.41%.
For C[C@H](NC(=O)C1CC1)c1nc2cc(-c3ccc(F)cc3)ncn2n1 the result was -31.83%.
For CN1CCN(c2cc(CNC(=O)c3ccc(=O)[nH]n3)ccn2)CC1 the result was -18.29%.
For CCn1nc(C)c2c1cnn2CCNS(C)(=O)=O the result was 20.04%.

For reference, 2 entries once more:

With CN1CCN(c2cc(CNC(=O)c3ccc(=O)[nH]n3)ccn2)CC1 the screen gave -18.29%.
With O=C(O)c1ccc(F)c(S(=O)(=O)Nc2ccc(-n3cccn3)c(Cl)c2)c1 the screen gave 10.8%.